Cleaved PARP in drug-treated melanoma cells

Values as published with doi:10.1371/journal.pone.0140310, rounded.

Drugs:
temozolomide: Cn1nnc2c(C(N)=O)ncn2c1=O at 10 µM
AS-252424: O=C1NC(=O)/C(=C/c2ccc(-c3ccc(F)cc3O)o2)S1 at 5 µM
JZL184: O=C(Oc1ccc([N+](=O)[O-])cc1)N1CCC(C(O)(c2ccc3c(c2)OCO3)c2ccc3c(c2)OCO3)CC1 at 5 µM
CP-690550: C[C@@H]1CCN(C(=O)CC#N)C[C@@H]1N(C)c1ncnc2[nH]ccc12 at 5 µM
nilotinib: Cc1cn(-c2cc(NC(=O)c3ccc(C)c(Nc4nccc(-c5cccnc5)n4)c3)cc(C(F)(F)F)c2)cn1 at 1 µM
nilutamide: CC1(C)NC(=O)N(c2ccc([N+](=O)[O-])c(C(F)(F)F)c2)C1=O at 5 µM
IMD-0354: O=C(Nc1cc(C(F)(F)F)cc(C(F)(F)F)c1)c1cc(Cl)ccc1O at 0.08 µM
embelin: CCCCCCCCCCCC1=C(O)C(=O)C=C(O)C1=O at 6 µM
ENMD-2076: Cc1cc(Nc2cc(N3CCN(C)CC3)nc(/C=C/c3ccccc3)n2)n[nH]1 at 0.2 µM
tamatinib: COc1cc(Nc2ncc(F)c(Nc3ccc4c(n3)NC(=O)C(C)(C)O4)n2)cc(OC)c1OC at 2 µM
SNS-032: CC(C)(C)c1cnc(CSc2cnc(NC(=O)C3CCNCC3)s2)o1 at 0.05 µM
gemcitabine: Nc1ccn([C@@H]2O[C@H](CO)[C@@H](O)C2(F)F)c(=O)n1 at 0.002 µM
T0901317: O=S(=O)(c1ccccc1)N(CC(F)(F)F)c1ccc(C(O)(C(F)(F)F)C(F)(F)F)cc1 at 7 µM
AZD7762: NC(=O)Nc1cc(-c2cccc(F)c2)sc1C(=O)N[C@H]1CCCNC1 at 0.1 µM

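Human melanoma cells were exposed to two drugs together for 72 h in 1,536-well plates and read by automated microscopy after fixing and staining. Each value is the cleaved-PARP-positive fraction of nuclei relative to DMSO-treated wells, in %, so that 100 equals the control and higher values mean more apoptosis. Every drug was used at one fixed concentration, the higher of two screened. These are primary screening values without error estimates. Basal and induced levels differ widely between cell lines.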
Only some of the drugs and lines screened are listed, without regard to their results.
An entry leaves out what has no value listed here.
A dash means that no value is listed here.

Pair	RVH-421	A375	A101D	MeWo	UACC-257	G-361	WM3526	WM3619	COLO 829
embelin and CP-690550	53.7	69.6	72.6	74.1	61.2	79.5	146	124	159
AS-252424 and CP-690550	88.6	77.7	129	73.9	36.7	42.0	57.8	127	85.9
T0901317 and nilutamide	102	59.9	86.4	72.6	48.4	119	85.9	110	107
embelin and SNS-032	58.9	62.9	36.8	79.9	47.6	124	91.5	128	76.6
IMD-0354 and T0901317	181	193	193	58.3	33.0	404	116	140	149
nilotinib and nilutamide	155	-	236	98.4	38.8	166	105	112	149
tamatinib and JZL184	128	63.0	302	35.3	16.5	152	209	176	162
T0901317 and gemcitabine	92.3	169	87.8	238	44.6	183	122	160	371
nilotinib and embelin	105	59.0	67.9	253	89.3	64.3	192	137	81.1
ENMD-2076 and AZD7762	89.8	-	144	194	41.3	142	1390	390	117
JZL184 and nilotinib	52.2	64.3	170	94.5	54.9	142	131	133	99.0
IMD-0354 and temozolomide	79.7	81.8	58.9	88.5	75.6	64.8	136	99.5	246
embelin and temozolomide	56.8	192	112	122	60.8	89.1	149	103	42.7
AZD7762 and gemcitabine	162	-	293	1360	62.3	1180	806	656	330
gemcitabine and SNS-032	134	-	257	167	65.9	200	86.5	521	480
AZD7762 and nilutamide	42.9	-	54.7	216	33.9	165	246	408	198
ENMD-2076 and IMD-0354	555	211	84.5	68.0	84.5	56.7	50.9	84.5	101
temozolomide and gemcitabine	199	61.8	91.8	91.9	52.1	209	67.2	337	296
T0901317 and SNS-032	49.2	112	184	93.3	41.9	221	131	178	198
AS-252424 and nilotinib	207	71.7	178	83.3	83.7	241	145	115	90.2
ENMD-2076 and tamatinib	63.5	-	1260	320	100	206	138	119	192
SNS-032 and tamatinib	131	-	144	84.2	158	104	121	154	88.0
AS-252424 and AZD7762	177	202	110	163	19.9	57.1	274	260	26.4
ENMD-2076 and JZL184	107	483	55.0	155	20.4	224	354	112	120
nilotinib and tamatinib	17.9	-	470	93.5	39.1	74.6	196	201	173
gemcitabine and AS-252424	203	42.3	132	280	115	393	89.5	195	577
embelin and IMD-0354	148	154	184	89.3	110	199	70.6	129	146
AS-252424 and nilutamide	109	40.5	35.8	148	55.5	149	120	104	103
nilotinib and T0901317	227	77.2	82.8	147	38.7	259	178	104	128
temozolomide and CP-690550	118	-	123	178	95.2	86.3	38.0	80.1	137
AZD7762 and IMD-0354	114	-	127	44.9	72.5	34.5	738	623	64.7
JZL184 and AS-252424	171	65.8	45.2	62.5	23.2	148	74.4	91.3	118

The last 4 entries again:

{"pair": "nilotinib and T0901317", "RVH-421": 227, "A375": 77.2, "A101D": 82.8, "MeWo": 147, "UACC-257": 38.7, "G-361": 259, "WM3526": 178, "WM3619": 104, "COLO 829": 128}
{"pair": "temozolomide and CP-690550", "RVH-421": 118, "A101D": 123, "MeWo": 178, "UACC-257": 95.2, "G-361": 86.3, "WM3526": 38.0, "WM3619": 80.1, "COLO 829": 137}
{"pair": "AZD7762 and IMD-0354", "RVH-421": 114, "A101D": 127, "MeWo": 44.9, "UACC-257": 72.5, "G-361": 34.5, "WM3526": 738, "WM3619": 623, "COLO 829": 64.7}
{"pair": "JZL184 and AS-252424", "RVH-421": 171, "A375": 65.8, "A101D": 45.2, "MeWo": 62.5, "UACC-257": 23.2, "G-361": 148, "WM3526": 74.4, "WM3619": 91.3, "COLO 829": 118}